Only a part is listed here, and it is no random draw. The data scatter; read single values as rough.
compound: COC(=O)/C=C/c1ccccc1 [methyl cinnamate]; experiment: log2 ratio of iodoacetamide-alkyne labeling of the cysteine site, DMSO over compound (competition); higher = stronger covalent engagement of the cysteine by the compound, active = 1 or more; conditions: 500 µM; treatment time 1 h; system: HEK293T cell lysate
Method in brief: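 For each cysteine, the log2 competition ratio is mean control-channel reporter intensity over mean compound-channel reporter intensity. HEK293T lysate (2 mg/mL) was exposed to vehicle or electrophile (500 µM, 1 h, ambient temperature), labelled with iodoacetamide alkyne (1 h), clicked to sCIP-TMT reagents, digested overnight with trypsin at 37 °C, streptavidin-enriched and analysed by Orbitrap Eclipse LC-MS/MS with FAIMS and FragPipe. Cysteines quantified in only one of three replicates, each with duplicate channels, were excluded.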

Protein sequences, listed by entry. Tags and fused reporters are not part of them. Lines headed by an entry give the natural chain unless they say otherwise; changes in a name come on top.
UniProt Q00403, whole entry: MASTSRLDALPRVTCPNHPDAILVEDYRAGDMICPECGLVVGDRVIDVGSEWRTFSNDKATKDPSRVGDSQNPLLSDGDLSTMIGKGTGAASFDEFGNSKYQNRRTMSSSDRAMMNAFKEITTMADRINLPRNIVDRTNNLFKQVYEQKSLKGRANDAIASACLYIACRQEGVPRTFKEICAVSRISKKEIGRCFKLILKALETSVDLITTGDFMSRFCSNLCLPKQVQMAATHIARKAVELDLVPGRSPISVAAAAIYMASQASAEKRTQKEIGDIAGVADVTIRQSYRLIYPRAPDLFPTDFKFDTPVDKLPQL
UniProt P63167, whole entry, looked up: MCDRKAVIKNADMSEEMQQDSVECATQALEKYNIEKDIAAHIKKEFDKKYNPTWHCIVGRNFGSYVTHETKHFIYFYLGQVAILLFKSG
UniProt Q00839, whole entry, looked up: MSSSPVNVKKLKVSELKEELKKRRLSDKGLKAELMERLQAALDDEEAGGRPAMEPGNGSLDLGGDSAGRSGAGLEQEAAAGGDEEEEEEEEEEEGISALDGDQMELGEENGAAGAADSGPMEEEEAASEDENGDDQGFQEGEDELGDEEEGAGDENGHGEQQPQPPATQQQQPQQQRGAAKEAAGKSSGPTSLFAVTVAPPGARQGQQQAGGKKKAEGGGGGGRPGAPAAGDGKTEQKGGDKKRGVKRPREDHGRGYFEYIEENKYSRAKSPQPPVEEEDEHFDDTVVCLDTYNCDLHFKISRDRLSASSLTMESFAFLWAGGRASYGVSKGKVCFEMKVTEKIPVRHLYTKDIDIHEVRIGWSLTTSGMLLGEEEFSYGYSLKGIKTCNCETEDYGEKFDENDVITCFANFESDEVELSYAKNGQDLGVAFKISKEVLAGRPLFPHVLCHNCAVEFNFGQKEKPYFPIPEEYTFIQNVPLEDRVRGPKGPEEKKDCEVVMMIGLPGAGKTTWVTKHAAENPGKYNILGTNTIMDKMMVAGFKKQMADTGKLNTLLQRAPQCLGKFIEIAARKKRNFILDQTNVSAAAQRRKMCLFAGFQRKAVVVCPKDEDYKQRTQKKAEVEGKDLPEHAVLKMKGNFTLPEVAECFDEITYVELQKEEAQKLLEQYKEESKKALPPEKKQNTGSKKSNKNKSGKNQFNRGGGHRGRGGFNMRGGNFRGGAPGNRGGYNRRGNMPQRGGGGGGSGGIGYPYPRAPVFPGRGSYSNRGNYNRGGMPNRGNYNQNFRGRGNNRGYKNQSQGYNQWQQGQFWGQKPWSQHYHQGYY
UniProt P78368: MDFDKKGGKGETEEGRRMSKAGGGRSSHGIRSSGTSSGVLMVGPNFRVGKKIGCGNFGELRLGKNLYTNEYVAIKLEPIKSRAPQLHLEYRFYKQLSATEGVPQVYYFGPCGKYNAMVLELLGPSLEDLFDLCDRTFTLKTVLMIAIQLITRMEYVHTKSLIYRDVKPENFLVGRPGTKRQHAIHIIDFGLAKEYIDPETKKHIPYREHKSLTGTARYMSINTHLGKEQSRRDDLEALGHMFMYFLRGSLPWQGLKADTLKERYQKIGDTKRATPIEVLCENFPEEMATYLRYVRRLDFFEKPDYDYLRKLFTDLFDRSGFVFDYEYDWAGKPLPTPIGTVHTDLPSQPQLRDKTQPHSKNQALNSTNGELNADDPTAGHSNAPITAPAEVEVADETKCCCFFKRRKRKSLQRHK
UniProt Q00610: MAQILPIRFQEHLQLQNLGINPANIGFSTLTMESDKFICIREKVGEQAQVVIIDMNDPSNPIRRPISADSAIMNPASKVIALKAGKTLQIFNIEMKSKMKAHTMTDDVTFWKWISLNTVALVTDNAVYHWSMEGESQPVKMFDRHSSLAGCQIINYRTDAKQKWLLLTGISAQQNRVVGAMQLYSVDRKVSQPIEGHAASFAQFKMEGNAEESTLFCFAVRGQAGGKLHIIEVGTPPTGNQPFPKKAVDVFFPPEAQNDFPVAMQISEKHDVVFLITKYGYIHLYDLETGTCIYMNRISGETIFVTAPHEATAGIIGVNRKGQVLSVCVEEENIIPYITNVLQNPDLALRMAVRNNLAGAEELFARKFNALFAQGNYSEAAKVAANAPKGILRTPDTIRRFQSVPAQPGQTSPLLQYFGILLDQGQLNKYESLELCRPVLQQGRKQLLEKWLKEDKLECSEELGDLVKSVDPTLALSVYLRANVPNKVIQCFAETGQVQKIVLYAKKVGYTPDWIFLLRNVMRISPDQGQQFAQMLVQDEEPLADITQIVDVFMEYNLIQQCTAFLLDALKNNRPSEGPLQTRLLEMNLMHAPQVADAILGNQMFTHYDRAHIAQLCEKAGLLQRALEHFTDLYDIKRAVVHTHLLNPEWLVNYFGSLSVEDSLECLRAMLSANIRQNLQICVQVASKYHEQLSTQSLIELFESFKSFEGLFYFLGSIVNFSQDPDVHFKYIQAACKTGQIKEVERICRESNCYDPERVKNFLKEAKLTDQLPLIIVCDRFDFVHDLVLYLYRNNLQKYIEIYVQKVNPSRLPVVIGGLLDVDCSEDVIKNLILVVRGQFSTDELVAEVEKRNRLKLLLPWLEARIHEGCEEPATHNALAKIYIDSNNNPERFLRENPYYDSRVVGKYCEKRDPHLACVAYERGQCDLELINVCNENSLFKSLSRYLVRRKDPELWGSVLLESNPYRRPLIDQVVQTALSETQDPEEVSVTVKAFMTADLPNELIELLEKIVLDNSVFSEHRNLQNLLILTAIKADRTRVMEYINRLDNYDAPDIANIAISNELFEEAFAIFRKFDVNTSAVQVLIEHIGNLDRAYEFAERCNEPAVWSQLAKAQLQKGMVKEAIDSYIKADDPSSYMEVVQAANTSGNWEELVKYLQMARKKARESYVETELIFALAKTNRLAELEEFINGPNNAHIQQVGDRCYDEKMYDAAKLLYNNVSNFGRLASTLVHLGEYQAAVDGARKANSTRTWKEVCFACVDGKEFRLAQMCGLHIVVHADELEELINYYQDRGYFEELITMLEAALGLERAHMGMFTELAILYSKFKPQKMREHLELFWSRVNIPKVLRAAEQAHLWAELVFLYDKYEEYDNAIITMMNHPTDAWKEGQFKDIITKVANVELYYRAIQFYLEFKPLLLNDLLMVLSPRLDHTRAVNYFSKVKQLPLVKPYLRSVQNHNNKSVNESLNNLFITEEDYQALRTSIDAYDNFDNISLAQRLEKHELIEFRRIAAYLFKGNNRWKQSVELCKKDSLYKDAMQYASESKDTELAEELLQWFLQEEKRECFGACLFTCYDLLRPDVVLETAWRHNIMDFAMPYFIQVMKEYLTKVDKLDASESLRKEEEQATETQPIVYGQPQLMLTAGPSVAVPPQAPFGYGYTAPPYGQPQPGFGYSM
UniProt Q00587: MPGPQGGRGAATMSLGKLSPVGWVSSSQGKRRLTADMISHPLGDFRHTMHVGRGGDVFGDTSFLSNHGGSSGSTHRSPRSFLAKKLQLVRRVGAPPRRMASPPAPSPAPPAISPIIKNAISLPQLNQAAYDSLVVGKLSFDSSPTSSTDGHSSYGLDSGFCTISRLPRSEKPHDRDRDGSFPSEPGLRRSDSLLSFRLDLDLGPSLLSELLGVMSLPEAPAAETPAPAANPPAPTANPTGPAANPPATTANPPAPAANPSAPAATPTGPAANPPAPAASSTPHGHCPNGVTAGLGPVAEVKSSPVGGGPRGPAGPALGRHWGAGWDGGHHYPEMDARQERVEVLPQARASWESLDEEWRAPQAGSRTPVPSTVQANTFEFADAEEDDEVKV
UniProt Q01082, whole entry, looked up: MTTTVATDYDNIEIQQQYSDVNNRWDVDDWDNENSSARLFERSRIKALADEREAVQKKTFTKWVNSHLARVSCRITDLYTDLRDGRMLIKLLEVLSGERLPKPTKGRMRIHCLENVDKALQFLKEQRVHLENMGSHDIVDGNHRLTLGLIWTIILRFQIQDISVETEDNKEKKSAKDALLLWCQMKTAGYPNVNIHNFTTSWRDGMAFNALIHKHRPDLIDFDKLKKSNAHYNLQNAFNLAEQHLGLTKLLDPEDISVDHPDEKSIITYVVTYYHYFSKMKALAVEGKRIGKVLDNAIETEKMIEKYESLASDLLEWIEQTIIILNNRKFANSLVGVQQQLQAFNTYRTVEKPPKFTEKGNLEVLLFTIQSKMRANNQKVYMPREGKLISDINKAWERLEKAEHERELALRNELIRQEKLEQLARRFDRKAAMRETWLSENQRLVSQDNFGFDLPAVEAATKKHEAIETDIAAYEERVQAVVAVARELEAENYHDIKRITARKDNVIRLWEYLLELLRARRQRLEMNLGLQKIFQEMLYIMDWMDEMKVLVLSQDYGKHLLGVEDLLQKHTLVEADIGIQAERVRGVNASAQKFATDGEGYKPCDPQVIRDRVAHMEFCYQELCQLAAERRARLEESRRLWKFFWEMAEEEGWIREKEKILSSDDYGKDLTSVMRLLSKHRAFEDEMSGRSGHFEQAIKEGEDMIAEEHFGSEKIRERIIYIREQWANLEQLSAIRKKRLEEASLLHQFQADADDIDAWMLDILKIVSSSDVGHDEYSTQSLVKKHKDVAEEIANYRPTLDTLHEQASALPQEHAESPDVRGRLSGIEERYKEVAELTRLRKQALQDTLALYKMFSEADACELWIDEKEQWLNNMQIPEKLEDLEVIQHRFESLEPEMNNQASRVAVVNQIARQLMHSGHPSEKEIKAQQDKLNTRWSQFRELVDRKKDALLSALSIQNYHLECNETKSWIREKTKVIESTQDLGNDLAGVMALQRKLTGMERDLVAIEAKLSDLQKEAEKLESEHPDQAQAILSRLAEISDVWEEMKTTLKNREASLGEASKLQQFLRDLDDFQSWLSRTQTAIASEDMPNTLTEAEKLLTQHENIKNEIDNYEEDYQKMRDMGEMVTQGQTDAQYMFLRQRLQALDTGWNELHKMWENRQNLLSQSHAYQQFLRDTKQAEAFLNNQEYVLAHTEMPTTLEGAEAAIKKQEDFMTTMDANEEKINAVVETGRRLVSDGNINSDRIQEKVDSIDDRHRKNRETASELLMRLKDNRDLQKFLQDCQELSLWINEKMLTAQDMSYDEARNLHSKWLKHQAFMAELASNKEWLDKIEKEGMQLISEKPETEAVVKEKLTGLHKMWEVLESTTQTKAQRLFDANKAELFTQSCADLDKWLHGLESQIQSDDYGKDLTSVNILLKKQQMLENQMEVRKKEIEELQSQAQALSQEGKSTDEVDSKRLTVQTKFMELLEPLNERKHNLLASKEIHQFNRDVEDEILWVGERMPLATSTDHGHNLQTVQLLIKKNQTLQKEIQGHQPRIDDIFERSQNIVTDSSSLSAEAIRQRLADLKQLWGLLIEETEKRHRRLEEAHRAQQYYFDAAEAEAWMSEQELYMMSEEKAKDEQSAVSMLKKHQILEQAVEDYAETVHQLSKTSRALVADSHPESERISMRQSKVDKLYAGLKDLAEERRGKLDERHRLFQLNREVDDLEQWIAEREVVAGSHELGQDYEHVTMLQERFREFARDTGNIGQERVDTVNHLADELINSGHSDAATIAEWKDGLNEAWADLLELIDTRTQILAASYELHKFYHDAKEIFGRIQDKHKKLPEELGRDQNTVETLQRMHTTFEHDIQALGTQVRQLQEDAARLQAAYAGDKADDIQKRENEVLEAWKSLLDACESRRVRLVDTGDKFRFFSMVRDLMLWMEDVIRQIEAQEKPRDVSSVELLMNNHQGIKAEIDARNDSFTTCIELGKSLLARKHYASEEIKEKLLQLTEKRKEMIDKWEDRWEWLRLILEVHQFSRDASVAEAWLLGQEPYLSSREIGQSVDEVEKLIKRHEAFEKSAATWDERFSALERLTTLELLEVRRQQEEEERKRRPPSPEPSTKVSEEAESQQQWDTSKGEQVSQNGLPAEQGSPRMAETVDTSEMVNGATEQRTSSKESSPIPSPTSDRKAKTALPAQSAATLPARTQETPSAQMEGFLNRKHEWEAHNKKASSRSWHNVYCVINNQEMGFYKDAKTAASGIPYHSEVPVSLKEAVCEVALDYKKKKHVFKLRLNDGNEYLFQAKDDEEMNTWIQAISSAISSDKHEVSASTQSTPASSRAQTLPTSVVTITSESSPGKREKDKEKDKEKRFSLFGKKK
UniProt Q00535, whole entry, looked up: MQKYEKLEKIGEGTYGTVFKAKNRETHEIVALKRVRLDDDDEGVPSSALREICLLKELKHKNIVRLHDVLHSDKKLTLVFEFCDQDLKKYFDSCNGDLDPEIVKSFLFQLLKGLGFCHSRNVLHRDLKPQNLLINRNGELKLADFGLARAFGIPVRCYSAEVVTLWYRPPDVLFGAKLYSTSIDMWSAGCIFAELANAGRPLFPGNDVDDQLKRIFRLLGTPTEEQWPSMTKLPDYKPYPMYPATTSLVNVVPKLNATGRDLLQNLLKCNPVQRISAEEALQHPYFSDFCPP

log2 ratio of iodoacetamide-alkyne labeling, inactive:
CCT2 C535 (UniProt P78371) 0.0134
GTF2B C15 (UniProt Q00403) 0.0157
UniProt Q00341_C636 0.312
UniProt P63167_C56 0.0658
HNRNPU C389 (UniProt Q00839) 0.788
UniProt P78368_C54 0.0383
HMGCS1 C224 (UniProt Q01581) 0.11
CLTC C918 (UniProt Q00610) 0.174
CDC42EP1 C161 (UniProt Q00587) 0.044
CLTC C926 (UniProt Q00610) 0.199
SPTBN1 C1389 (UniProt Q01082) -0.0689
RPS27A C126 (UniProt P62979) 0.103
UniProt P62753_C100 0.143
CDK5 C157 (UniProt Q00535) -0.108
UniProt Q00341_C878 0.0747

Two successive entries from above, quoted:
log2 ratio of iodoacetamide-alkyne labeling, inactive:
CDC42EP1 C161 (UniProt Q00587) 0.044
CLTC C926 (UniProt Q00610) 0.199
